# Assay results from publication PMC7940691.
# Key:
# [1] = molecular target: T1, MKB1ΔC (MAKIBISHI1 devoid of its membrane spanning domain, amino acid 1–237), fused to the GAL4 DNA-binding domain (Medicago truncatula) (UniProt G9CSC7); test: two-hybrid; binary assay: bait (MKB1ΔC or RMA1-3ΔC) fused to the GAL4 DNA-binding domain, prey fused to the GAL4 activation domain; 10- and 100-fold dilutions spotted on control medium (-2) and selective medium (-3, lacking His)
# T1 sequence: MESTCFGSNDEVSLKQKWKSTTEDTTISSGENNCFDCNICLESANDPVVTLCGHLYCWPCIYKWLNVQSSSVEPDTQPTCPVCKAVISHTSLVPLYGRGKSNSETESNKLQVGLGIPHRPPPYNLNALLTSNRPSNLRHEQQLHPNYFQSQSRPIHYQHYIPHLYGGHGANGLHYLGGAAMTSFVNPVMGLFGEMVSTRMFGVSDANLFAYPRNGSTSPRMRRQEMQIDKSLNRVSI
# [2] = molecular target: T1, MKB1ΔC (MAKIBISHI1 devoid of its membrane spanning domain, amino acid 1–237), fused to the GAL4 DNA-binding domain (Medicago truncatula); test: yeast three-hybrid; MKB1ΔC and HMGR1ΔN as bait and prey, MASH as third protein N-terminally fused to a nuclear localization signal (pMG426-NLS); transformants on SD lacking Leu, Trp and Ura, selective medium lacking His in addition
binding [1],binding [2],Substance
binds,–,"Arabidopsis MASH homolog encoded by At5G64360, fused to the GAL4 activation domain"
–,no binding,M. truncatula HMGR1 devoid of its membrane domain (HMGR1ΔN) (Medicago truncatula) (domain or fragment)

# Results are given in words; binding and its absence hold for the method and conditions named. For some assays here: Binding can be weak; no strength is given. Sequences can lack the tags named with a protein.
